The values that follow come from patent US12378320B2, “Methods for treating pancreatitis” (Cold Spring Harbor Laboratory, priority 2018, dated 2025).

B1: Q9EPL8 (protein, UniProt Q9EPL8 1-1038, looked up)
chain: MDPNTIIEALRGTMDPALREAAERQLNEAHKSLNFVSTLLQITMSEQLDLPVRQAGVIYLKNMITQYWPDREATPGDIAPYTIPEEDRHCIRENIVEAIIHSPELIRVQLTTCIHHIIKHDYPSRWTAIVDKIGFYLQSDNSACWLGILLCLYQLVKNYEYKKPEERSPLVAAMQHFLPVLKDRFIQLLSDQSDQSVLIQKQIFKIFYALVQYTLPLELINQQNLTEWVEILKTVVNRDVPNETLQVEEDDRPELPWWKCKKWALHILARLFERYGSPGNVSKEYNEFAEVFLKAFAVGVQQVLLKVLYQYKEKQYMAPRVLQQTLNYINQGVSHALTWKNLKPHIQGIIQDVIFPLMCYTDADEELWQEDPYEYIRMKFDVFEDFISPTTAAQTLLFTACSKRKEVLQKTMGFCYQILTEPNADPRKKDGALHMIGSLAEILLKKKIYKDQMEYMLQNHVFPLFSSELGYMRARACWVLHYFCEVKFKSDQNLQTALELTRRCLIDDREMPVKVEAAIALQVLISNQEKAKEYITPFIRPVMQALLHIIRETENDDLTNVIQKMICEYSEEVTPIAVEMTQHLAMTFNQVIQTGPDEEGSDDKAVTAMGILNTIDTLLSVVEDHKEITQQLEGICLQVIGTVLQQHVLEFYEEIFSLAHSLTCQQVSPQMWQLLPLVFEVFQQDGFDYFTDMMPLLHNYVTVDTDTLLSDTKYLEMIYSMCKKVLTGVAGEDAECHAAKLLEVIILQCKGRGIDQCIPLFVEAALERLTREVKTSELRTMCLQVAIAALYYNPHLLLNTLENLRFPNNVEPVTNHFITQWLNDVDCFLGLHDRKMCVLGLCALIDMEQIPQVLNQVSGQILPAFILLFNGLKRAYACHAEHENDSDDDEDAEDDDETEELGSDEDDIDEDGQEYLEILAKQAGEDGDDEDWEEDDAEETALEGYSTIIDDEDNPVDEYQIFKAIFQTIQNRNPVWYQALTHGLNEEQRKQLQDIATLADQRRAAHESKMIEKHGGYKFSAPVVPSSFNFGGPAPGMN
modifications: full-length
B2: Q91X72 (protein, UniProt Q91X72 1-460, looked up)
chain: MARTAVALNILVLLGLCWSLAVASPLPTANGRVAEVENGTKPDSDVPEHCLDTWSFDAATMDHNGTMLFFKGEFVWRGHSGTRELISARWKNPITSVDAAFRGPDSVFLIKEDKVWVYPPEKKENGYPKLFQEEFPGIPYPPDAAVECHRGECQSEGVLFFQGNRKWFWDFATRTQKERSWSTVGNCTAALRWLERYYCFQGNKFLRFNPVTGEVPPRYPLDARDYFVSCPGRGHGRPRNGTAHGNSTHPMHSRCSPDPGLTALLSDHRGATYAFTGSHYWRLDSSRDGWHSWPIAHHWPQGPSTVDAAFSWDDKVYLIQGTQVYVFLTKGGNNLVSGYPKRLEKELGSPPGISLETIDAAFSCPGSSRLYVSSGRRLWWLDLKSGAQATWTEVSWPHEKVDGALCLDKSLGPNTCSSNGSSLYFIHGPNLYCYSSIDKLNAAKSLPQPQKVNSILGCSQ
modifications: full-length
B3: Q8BH00 (protein, UniProt Q8BH00 1-487, looked up)
chain: MAGKRELLMLENFIGGKFLPCNSYIDSYDPSTGEVYCKVPNSGKEEIEAAVEAAREAFPAWSSRSPQERSLVLNRLADVLEQSLEELAQAESKDQGKTLTLARTMDIPRSVLNFRFFASSNLHHVSECTQMSHLGCMHYTVRTPVGIAGLISPWNLPLYLLTWKIAPAIAAGNTVIAKPSEMTSVTAWMFCKLLDKAGVPPGVINIVFGTGPRVGEALVSHPEVPLISFTGSQPTAERITQLSAPHCKKLSLELGGKNPAIIFEDANLEECIPATVRSSFANQGEICLCTSRIFVQRSIYSEFLKRFVEATRKWKVGVPSDPSANMGALISKAHLEKVRSYVLKAQTEGARILCGEGVDQLSLPLRNQAGYFMLPTVITDIKDESRCMTEEIFGPVTCVVPFDSEEEVITRANSVRYGLAATVWSKDVGRIHRVAKKLQSGLVWTNCWLIRELNLPFGGMKSSGIGREGAKDSYDFFTEIKTITIKY
modifications: full-length
B4: Q8BWT1 (protein, UniProt Q8BWT1 1-397, looked up)
chain: MALLRGVFIVAAKRTPFGAYGGLLKDFSATDLTEFAARAALSAGKVPPETIDSVIVGNVMQSSSDAAYLARHVGLRVGVPTETGALTLNRLCGSGFQSIVSGCQEICSKDAEVVLCGGTESMSQSPYCVRNVRFGTKFGLDLKLEDTLWAGLTDQHVKLPMGMTAENLAAKYNISREDCDRYALQSQQRWKAANEAGYFNEEMAPIEVKTKKGKQTMQVDEHARPQTTLEQLQKLPSVFKKDGTVTAGNASGVSDGAGAVIIASEDAVKKHNFTPLARVVGYFVSGCDPTIMGIGPVPAINGALKKAGLSLKDMDLIDVNEAFAPQFLSVQKALDLDPSKTNVSGGAIALGHPLGGSGSRITAHLVHELRRRGGKYAVGSACIGGGQGIALIIQNTA
modifications: full-length
B5: P23116 (protein, UniProt P23116 1-1344, looked up)
chain: MPAYFQRPENALKRANEFLEVGKKQPALDVLYDVMKSKKHRTWQKIHEPIMLKYLELCVDLRKSHLAKEGLYQYKNICQQVNIKSLEDVVRAYLKLAEEKTEAAKEESQQMVLDIEDLDNIQTPESVLLSAVSGEDTQDRTDRLLLTPWVKFLWESYRQCLDLLRNNSRVERLYHDIAQQAFKFCLQYTRKAEFRKLCDNLRMHLSQIQRHHNQSTAINLNNPESQSMHLETRLVQLDSAISMELWQEAFKAVEDIHGLFSLSKKPPKPQLMANYYNKVSTVFWKSGNALFHASTLHRLYHLSREMRKNLTQEEMQRMSTRVLLATLSIPITPERTDIARLLDMDGIIVEKQRRLATLLGLQAPPTRIGLINDMVRFSVLQYVVPEVKDLYNWLEVEFNPLKLCERVTKVLNWVREQPEKEPELQQYVPQLQNNTILRLLQQVAQIYQSIEFSRLTSLVPFVDAFQLERAIVDAARHCDLQVRIDHTSRTLSFGSDLNYATREDAPVGPHLQSMPSEQIRNQLTAMSSVLAKALEVIRPAHILQEKEEQHQLAVNAYLKNSRKEHQRILARRQTIEERKERLESLNIQREKEELEQREAELQKVRKAEEERLRQEAKEREKERILQEHEQIKKKTVRERLEQIKKTELGAKAFKDIDIEDLEELDPDFIMAKQVEQLEKEKKELQERLKNQEKKIDYFERAKRLEEIPLIKSAYEEQRVKDMDLWEQQEEERITTMQLEREKALEHKNRMSRMLEDRDLFVMRLKAARQSVYEEKLKQFEERLAEERHSRLEDRKRQRKEERKITYYREKEEEEQRRAEEQMLKEREERERAERAKREEELREYQERVKKLEEVERKKRQRELEIEERERRREEERRLGDDPLSRKDSRWGDRDSEGTWRKGPEADSEWRRGPPEKEWRRETRDDERPHRRDEDRLRRLGGDDEERESSLRPDDDRIPRRGLDDDRGPRRGPDEDRFSRRGTDDDRPSWRNADDDRPPRRIGDDDRGSWRHTDDDRPPRRGLDDERGSWRTADEDRGPRRGMDDDRGPRRGGADDERSSWRNADDDRGPRRGMDDDRGPRRGLDDDRGPWRNAAEDRISRRGADDDRGPWRNMDDDRVPRRGDDARPGPWRPFVKPGGWREKEKAREESWGPPRESRPSEEREWDRDKEKDRDNQDREENDKDLERDRDRERDGDREDRFRRPRDEGGWRRGPAEESSSWRDSSRRDDRDREDRRRDRDDRRDLRDLRDRRDLRDDRDRRGPPLRSEREEASSWRRTDDRKDDRTEERDPPRRVPPPALSRDREREREREGEKEKASWRAEKDRESLRRTKNETDEDGWTTVRR
modifications: full-length
B6: Q3TTY5 (protein, UniProt Q3TTY5 1-707, looked up)
chain: MSCQISCRSRRGGGGGGGGGFRGFSSGSAVVSGGSRRSNTSFSCISRHGGGRGGSGGGGFGSQSLVGLGGYKSISSSVAGNSGGYGGSSFGGSSGFGGGRGFGGGQGFGGSGGFGGGSGFGGGQGFGGGSRFGGGSGFGGGGFGGGSFGGGRFGGGPGGFGGPGGFPGGGIHEVSVNQSLLQPLDVKVDPEIQNVKSQEREQIKTLNNKFASFIDKVRFLEQQNQVLRTKWELLQQLDVGSRTTNLDPIFQAYIGMLKKQVDRLSAERTSQESELNNMQDLVEDFKKKYEDEINKRTSAENDFVTIKKDVDSCYMDKTELQARLDILAQEVNFLRTLYDAELSQLQQDVTDTNVILSMDNNRNLDLDSIIAEVQNQYEMIAHKSKAESEELYHSKYEELQVTAVKHGDSLKEIKMEISELNRTIQRLQGEISHVKKQCKGVQDSIADAEQRGEHAIKDARGKLTDLEEALQQCREDLARLLRDYQELMNTKLSLDVEIATYRKLLEGEECRMSGDFSDNVSVSITSSTISSSVASKTGFGSGGQSSGGRGSYGGRGGGGGGGSTYGSGGRSSGSRGSGSGSGGGGYSSGGGSRGGSGGGYGSGGGSRGGSGGGYGSGGGSGSGGGYSSGGGSRGGSGGGGVSSGGGSRGGSSSGGGSRGGSSSGGGGYSSGGGSRGGSSSGGAGSSSEKGGSGSGEGCGSGVTFSFR
modifications: full-length
B7: Q6IFZ6 (protein, UniProt Q6IFZ6 1-572, looked up)
chain: MSRQFSSQSAFSSRSRRAYSSRSSSGFGGGRQALVSVSQSRRYGGDYGGGFSSRSLYSLGGSKSIFGNLVGRSASGFCQSRGPGGGFGGGIGGGIGGGRGFGGGGFGGGYGGGGRFGGGFGGAGFGFGGFGPSYPPGGIHEVTINQSLLEPLHLEVDPEIQRVKTQEREQIKTLNNKFASFIDKVRFLEQQNQVLQTKWELLQQVNTSTRTSSLEPVFEEFISQLQRQVDVLTTEQLRQNTEIRNMQDVVEDYKNKYEDEINKRTNAENDFVVLKKDVDAAFMGKSDLQSKVDTLYGEINFLKYLFDTELSQIQTHVSDTNVILSMDNNRSLDLDSIIDAVRAQYEIIAQKSKDEAEALYQTKYQELQITAGKHGDDLKNSKMEISELNRNIQRLRAEIANIKKQVEGMHGLISDAEERGERALQNAKQKLQDMEEALQQAKEDLAKLLRDYQAMLGAKLSLDVEIATYRQLLEGEESRMSGALQSQVSISVQSSQVTIGGGGGGSGSYSGSSRGGGGGGGGTGSRGGGGGGGGSSYVSSSRSATKYGSGGGSSRTQILQTSTHSSRRHVVE
modifications: full-length

For one data set, the system named is CA19-9 modified proteins. Briefly: CA19-9 IP/MS (iTRAQ) of organoid conditioned media after Dox treatment. On the set-up: species or system mouse. Particulars: A217 (genetic negative) organoids conditioned media, after 8 hours of treatment, CA19-9 IP with 5B1; relative to 17 0H NS19.
In the case of B1, the “17 8H 5B1” value stood at 2.393.
Same read-out and setting: for B2 the value was 0.697; for B3, 2.803.
As to B4, the “17 8H 5B1” value is on record as 2.21.
The same measure, in the same setting: in the case of B5 it was 3.66.

Still in this data set, the particulars now being: A217 (genetic negative) organoids conditioned media, after 8 hours of treatment, CA19-9 IP with NS19-9; relative to 17 0H NS19.
Regarding B1, the “17 8H NS19” value was 0.552.
The same measure, in the same setting: in the case of B2 it was 0.661; in that of B3, 0.558.
Still for that read-out and setting: for B4 the value was 0.344; for B5, 0.436.

Still in this data set, the particulars now being: A217 (genetic negative) organoids conditioned media, before treatment (0H), CA19-9 IP with NS19-9; relative abundance, reference channel.
Regarding B1, the “17 0H NS19” value stood at 1.
Still for that read-out and setting: in the case of B2 it was 1.
Still for that read-out and setting: for B3 the value was 1; for B4, 1.
With B5, the “17 0H NS19” value was determined as 1.

Staying with this data set, now noted: A220 (C;R^LSL;F) organoids conditioned media, before treatment (0H), CA19-9 IP with 5B1; relative to 17 0H NS19.
B1: the “20 0H 5B1” value was 1.635.
Same read-out and setting: in the case of B2 it was 0.649; in that of B3, 2.783; in that of B4, 1.806.
With B5, the “20 0H 5B1” value is reported as 3.444.

Staying with this data set, now noted: CA19-9 IP/MS relative abundance; A217 (genetic negative) organoid conditioned media, 0H (before treatment), IP with NS19-9; reference channel = 1.
In the case of B6, the “17 0H NS19” value is on record as 1.
Still for that read-out and setting: in the case of B7 it was 1.

The same data set, now with this note: CA19-9 IP/MS relative abundance; A217 (genetic negative) organoid conditioned media, after 8 hours, IP with 5B1.
B6: the “17 8H 5B1” value was 0.65.
Still for that read-out and setting: for B7 the value was 0.85.

The data set is the same for the next values; noted with them: CA19-9 IP/MS relative abundance; A217 (genetic negative) organoid conditioned media, after 8 hours, IP with NS19-9.
For the molecule B6, the “17 8H NS19” value is on record as 2.077.
On the same count and under the same terms, for B7 the value was 2.003.

The same data set, now with this note: CA19-9 IP/MS relative abundance; A220 (C;R^LSL;F) organoid conditioned media, 0H (before treatment), IP with 5B1.
For B6, the “20 0H 5B1” value was 1.285.
Same read-out and setting: for B7 the value was 1.282.
